The subject of this assay is HEK293A TEAD-LUC reporter. The assay can be described thus: TEAD-luciferase reporter activity (YAP activation), robust Z score vs plate; higher = stronger YAP/TEAD activation. The settings on record: 24 h. On the technique in general: A reporter such as luciferase makes a cellular process visible.

Molecules are shown by their SMILES. The list shows a part of the results. Repeats in this data set agree poorly, so a single value says little.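 Human kidney-derived cells stably carry a construct in which eight TEAD-binding elements drive luciferase, measured by luminescence in a drug-repurposing library screen. A hit is any compound whose signal exceeds the plate mean by more than five robust Z scores.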

`Oc1ccc(CCNCCCCCCNCCc2ccccc2)cc1O`: the TEAD-luciferase reporter activity reads like this: (compound concentration: 200 nM) inactive: 1.43; (compound concentration: 2 uM) inactive: -0.718; (compound concentration: 10 uM) active: 13.4.

Consider `CN(Cc1ccc(C(F)(F)F)cc1)C1CCc2ccccc21` (stereo not given), for which the TEAD-luciferase reporter activity (compound concentration: 200 nM) is inactive: -1 and the TEAD-luciferase reporter activity (compound concentration: 10 uM) is active: 7.03.

With `C=C1C(=O)O[C@@H]2[C@H]3O[C@]3(C)CC/C=C(\C)CC[C@@H]12` [Parthenolide], the TEAD-luciferase reporter activity by setting is: (compound concentration: 200 nM) inactive: 0.283; (compound concentration: 2 uM) inactive: -2.45; (compound concentration: 10 uM) inactive: 0.609.

For `CN(Cc1ccccc1)C(=O)[C@H](Cc1ccc2ccccc2c1)NC(=O)[C@@H]1C[C@@H](O)CN1C(=O)c1cn(C)c2ccccc12`, the TEAD-luciferase reporter activity reads like this: (compound concentration: 200 nM) inactive: 1.45; (compound concentration: 2 uM) inactive: -0.251; (compound concentration: 10 uM) inactive: 1.83.

In the case of `Cc1ccc(NC(=O)c2ccc(CN3CCN(C)CC3)cc2)cc1Nc1nc(-c2cccnc2)cs1` [masitinib], the TEAD-luciferase reporter activity (compound concentration: 200 nM) was inactive: -0.532, the TEAD-luciferase reporter activity (compound concentration: 2 uM) is active: 6.12 and the TEAD-luciferase reporter activity (compound concentration: 10 uM) is inactive: 1.65.

With `CC12CCC(=O)CC1CCC1C2CCC2(C)C(C(=O)COC(=O)CCC(=O)O)CCC12` (stereo not given), the TEAD-luciferase reporter activity (compound concentration: 200 nM) was inactive: -1.48, the TEAD-luciferase reporter activity (compound concentration: 2 uM) was inactive: -0.551 and the TEAD-luciferase reporter activity (compound concentration: 10 uM) was inactive: -1.66.

Consider `C[C@]12CCC(=O)C=C1CC[C@@H]1[C@@H]2[C@@H](O)C[C@@]2(C)[C@H]1CC[C@]2(O)C(=O)COC(=O)CCC(=O)[O-]`, for which the TEAD-luciferase reporter activity reads like this: (compound concentration: 200 nM) inactive: 1.31; (compound concentration: 10 uM) inactive: -0.586.

`C[C@]12CCC(=O)C=C1CC[C@@H]1[C@@H]2[C@@H](O)C[C@@]2(C)[C@H]1CC[C@]2(O)C(=O)COC(=O)CCC(=O)[O-]` [Hydrocortisone sodium succinate]: the TEAD-luciferase reporter activity (compound concentration: 2 uM) is inactive: 0.12.

On to `NC(=O)[C@@H]1CCCN1C(=O)[C@H](Cc1cnc[nH]1)NC(=O)[C@@H]1CC(=O)N1`, for which the TEAD-luciferase reporter activity is inactive: -1.67 (compound concentration: 200 nM), inactive: -0.359 (compound concentration: 2 uM) and inactive: 4.84 (compound concentration: 10 uM).

In the case of `NC1(C(=O)N[C@@H](CCO)c2ccc(Cl)cc2)CCN(c2ncnc3[nH]ccc23)CC1`, the TEAD-luciferase reporter activity was inactive: 0.321 (compound concentration: 200 nM), inactive: 1.66 (compound concentration: 2 uM) and inactive: 3.2 (compound concentration: 10 uM).

For the molecule `COc1nc(C(Cl)(Cl)Cl)c(Cl)c(OC)c1Cl`, the TEAD-luciferase reporter activity is inactive: -0.177 (compound concentration: 200 nM), inactive: 1.1 (compound concentration: 2 uM) and inactive: 0.3 (compound concentration: 10 uM).

For `CC(=O)NC[C@H]1CN(c2ccc(N3CCN(C(=O)COP(=O)(O)O)CC3)c(F)c2)C(=O)O1`, the TEAD-luciferase reporter activity is inactive: -0.84 (compound concentration: 200 nM), inactive: -0.16 (compound concentration: 2 uM) and inactive: 1.86 (compound concentration: 10 uM).

As for `CC(C)n1nc(-c2cccc(Cl)c2Cl)c(=N)[nH]c1=N` [Palatrigine], the TEAD-luciferase reporter activity is inactive: -0.793 (compound concentration: 200 nM), inactive: 0.976 (compound concentration: 2 uM) and inactive: 1.6 (compound concentration: 10 uM).

Consider `COC(=O)[C@@H]1C[C@H](Oc2ccc(Cl)cc2)CN1`, for which the TEAD-luciferase reporter activity reads like this: (compound concentration: 200 nM) inactive: 2.4; (compound concentration: 2 uM) inactive: -1.28; (compound concentration: 10 uM) inactive: 1.08.

Take `CCN(c1nc(C)cc(N2CC=C(c3cccc(F)c3)CC2)n1)c1ccc(C(C)C)cc1SC`: the TEAD-luciferase reporter activity is, setting by setting: (compound concentration: 200 nM) inactive: -0.282; (compound concentration: 2 uM) inactive: 0.172; (compound concentration: 10 uM) inactive: -1.2.

On to `CC1CCN(C(=O)[C@H](CCCNC(=N)N)NS(=O)(=O)c2cccc3c(N(C)C)cccc23)CC1`, for which the TEAD-luciferase reporter activity is inactive: -1.22 (compound concentration: 200 nM), inactive: -1.05 (compound concentration: 2 uM) and inactive: -0.506 (compound concentration: 10 uM).

As to `CCC(=O)NCC[C@@H]1CCc2ccc3c(c21)CCO3` [ramelteon], the TEAD-luciferase reporter activity was inactive: 0.195 (compound concentration: 200 nM), inactive: -0.19 (compound concentration: 2 uM) and inactive: -1.59 (compound concentration: 10 uM).

In the case of `Cn1cc(-c2ccc(S(=O)(=O)n3ccc(/C=C/C(=O)Nc4ccccc4N)c3)cc2)cn1`, the TEAD-luciferase reporter activity was active: 7.63 (compound concentration: 200 nM), active: 5.12 (compound concentration: 2 uM) and inactive: 4.01 (compound concentration: 10 uM).

As for `CC/C(=C(/c1ccc(/C=C/C(=O)O)cc1)c1ccc2[nH]ncc2c1)c1ccc(F)cc1Cl`, the TEAD-luciferase reporter activity reads like this: (compound concentration: 200 nM) inactive: -0.187; (compound concentration: 2 uM) inactive: 1.42; (compound concentration: 10 uM) inactive: 0.588.

In the case of `COc1ccc2[nH]c(S(=O)Cc3ncc(C)c(OC)c3C)nc2c1` (stereo not given), the TEAD-luciferase reporter activity was inactive: -0.212 (compound concentration: 200 nM) and active: 5.47 (compound concentration: 10 uM).

Consider `COc1ccc2[nH]c(S(=O)Cc3ncc(C)c(OC)c3C)nc2c1` (stereo not given) [Esomeprazole sodium], for which the TEAD-luciferase reporter activity (compound concentration: 2 uM) is inactive: 2.87.

Consider `COc1ccc2[nH]c(S(=O)Cc3ncc(C)c(OC)c3C)nc2c1` (stereo not given) [Omeprazole sodium], for which the TEAD-luciferase reporter activity (compound concentration: 2 uM) is inactive: -1.35.

Consider `CNCC/C=C/1\c2ccccc2C2C(c3c1cccc3)C2` (stereo not given), for which the TEAD-luciferase reporter activity is, setting by setting: (compound concentration: 200 nM) inactive: -0.871; (compound concentration: 2 uM) inactive: -0.997; (compound concentration: 10 uM) inactive: 2.85.

For the molecule `CCC(CC)(CC(=O)Nc1cccc(/C=C/c2nc(C(C)C)cs2)c1)C(=O)O`, the TEAD-luciferase reporter activity reads like this: (compound concentration: 200 nM) inactive: -1.94; (compound concentration: 2 uM) inactive: -0.44; (compound concentration: 10 uM) inactive: 0.82.

`CC(C)CCOc1ccc(NC(=S)Nc2ccc(OCCC(C)C)cc2)cc1`: the TEAD-luciferase reporter activity is inactive: -2.65 (compound concentration: 200 nM), inactive: -0.407 (compound concentration: 2 uM) and inactive: -0.256 (compound concentration: 10 uM).

Turning to `COc1cc(C(C)=O)ccc1O` [Apocynin], the TEAD-luciferase reporter activity is, setting by setting: (compound concentration: 200 nM) inactive: -0.95; (compound concentration: 2 uM) inactive: -1.87; (compound concentration: 10 uM) inactive: 2.4.

Regarding `OC(CNc1ccccc1)CN1CCN(CCCC(c2ccc(F)cc2)c2ccc(F)cc2)CC1` (stereo not given), the TEAD-luciferase reporter activity was inactive: -1.84 (compound concentration: 200 nM), inactive: 0.692 (compound concentration: 2 uM) and inactive: 3.1 (compound concentration: 10 uM).

As to `CCCCCCC1(C(=O)OC)CO1` (stereo not given), the TEAD-luciferase reporter activity runs as follows: (compound concentration: 200 nM) inactive: -1.19; (compound concentration: 2 uM) inactive: -0.762; (compound concentration: 10 uM) inactive: -0.983.

The values above are taken from the supplement of paper PMC10735217.
